Measured values taken from article PMC12859043.
Read-outs that look alike come from different tables or passages of the source. These are yes or no findings as the source states them, for the method shown. Binding seen in cells or lysates may run through a third protein. A yes stands for co-enrichment or nearness to the bait. Other partners may have been found. Tags and fused reporters may be left off the sequences shown. Values belong to the molecule of their own block, whether it stands above or below them.

Chains of the proteins cited; added tags and fusions are not shown. Residues count along the entry.
UniProt Q9HCU4, residues 32-2923: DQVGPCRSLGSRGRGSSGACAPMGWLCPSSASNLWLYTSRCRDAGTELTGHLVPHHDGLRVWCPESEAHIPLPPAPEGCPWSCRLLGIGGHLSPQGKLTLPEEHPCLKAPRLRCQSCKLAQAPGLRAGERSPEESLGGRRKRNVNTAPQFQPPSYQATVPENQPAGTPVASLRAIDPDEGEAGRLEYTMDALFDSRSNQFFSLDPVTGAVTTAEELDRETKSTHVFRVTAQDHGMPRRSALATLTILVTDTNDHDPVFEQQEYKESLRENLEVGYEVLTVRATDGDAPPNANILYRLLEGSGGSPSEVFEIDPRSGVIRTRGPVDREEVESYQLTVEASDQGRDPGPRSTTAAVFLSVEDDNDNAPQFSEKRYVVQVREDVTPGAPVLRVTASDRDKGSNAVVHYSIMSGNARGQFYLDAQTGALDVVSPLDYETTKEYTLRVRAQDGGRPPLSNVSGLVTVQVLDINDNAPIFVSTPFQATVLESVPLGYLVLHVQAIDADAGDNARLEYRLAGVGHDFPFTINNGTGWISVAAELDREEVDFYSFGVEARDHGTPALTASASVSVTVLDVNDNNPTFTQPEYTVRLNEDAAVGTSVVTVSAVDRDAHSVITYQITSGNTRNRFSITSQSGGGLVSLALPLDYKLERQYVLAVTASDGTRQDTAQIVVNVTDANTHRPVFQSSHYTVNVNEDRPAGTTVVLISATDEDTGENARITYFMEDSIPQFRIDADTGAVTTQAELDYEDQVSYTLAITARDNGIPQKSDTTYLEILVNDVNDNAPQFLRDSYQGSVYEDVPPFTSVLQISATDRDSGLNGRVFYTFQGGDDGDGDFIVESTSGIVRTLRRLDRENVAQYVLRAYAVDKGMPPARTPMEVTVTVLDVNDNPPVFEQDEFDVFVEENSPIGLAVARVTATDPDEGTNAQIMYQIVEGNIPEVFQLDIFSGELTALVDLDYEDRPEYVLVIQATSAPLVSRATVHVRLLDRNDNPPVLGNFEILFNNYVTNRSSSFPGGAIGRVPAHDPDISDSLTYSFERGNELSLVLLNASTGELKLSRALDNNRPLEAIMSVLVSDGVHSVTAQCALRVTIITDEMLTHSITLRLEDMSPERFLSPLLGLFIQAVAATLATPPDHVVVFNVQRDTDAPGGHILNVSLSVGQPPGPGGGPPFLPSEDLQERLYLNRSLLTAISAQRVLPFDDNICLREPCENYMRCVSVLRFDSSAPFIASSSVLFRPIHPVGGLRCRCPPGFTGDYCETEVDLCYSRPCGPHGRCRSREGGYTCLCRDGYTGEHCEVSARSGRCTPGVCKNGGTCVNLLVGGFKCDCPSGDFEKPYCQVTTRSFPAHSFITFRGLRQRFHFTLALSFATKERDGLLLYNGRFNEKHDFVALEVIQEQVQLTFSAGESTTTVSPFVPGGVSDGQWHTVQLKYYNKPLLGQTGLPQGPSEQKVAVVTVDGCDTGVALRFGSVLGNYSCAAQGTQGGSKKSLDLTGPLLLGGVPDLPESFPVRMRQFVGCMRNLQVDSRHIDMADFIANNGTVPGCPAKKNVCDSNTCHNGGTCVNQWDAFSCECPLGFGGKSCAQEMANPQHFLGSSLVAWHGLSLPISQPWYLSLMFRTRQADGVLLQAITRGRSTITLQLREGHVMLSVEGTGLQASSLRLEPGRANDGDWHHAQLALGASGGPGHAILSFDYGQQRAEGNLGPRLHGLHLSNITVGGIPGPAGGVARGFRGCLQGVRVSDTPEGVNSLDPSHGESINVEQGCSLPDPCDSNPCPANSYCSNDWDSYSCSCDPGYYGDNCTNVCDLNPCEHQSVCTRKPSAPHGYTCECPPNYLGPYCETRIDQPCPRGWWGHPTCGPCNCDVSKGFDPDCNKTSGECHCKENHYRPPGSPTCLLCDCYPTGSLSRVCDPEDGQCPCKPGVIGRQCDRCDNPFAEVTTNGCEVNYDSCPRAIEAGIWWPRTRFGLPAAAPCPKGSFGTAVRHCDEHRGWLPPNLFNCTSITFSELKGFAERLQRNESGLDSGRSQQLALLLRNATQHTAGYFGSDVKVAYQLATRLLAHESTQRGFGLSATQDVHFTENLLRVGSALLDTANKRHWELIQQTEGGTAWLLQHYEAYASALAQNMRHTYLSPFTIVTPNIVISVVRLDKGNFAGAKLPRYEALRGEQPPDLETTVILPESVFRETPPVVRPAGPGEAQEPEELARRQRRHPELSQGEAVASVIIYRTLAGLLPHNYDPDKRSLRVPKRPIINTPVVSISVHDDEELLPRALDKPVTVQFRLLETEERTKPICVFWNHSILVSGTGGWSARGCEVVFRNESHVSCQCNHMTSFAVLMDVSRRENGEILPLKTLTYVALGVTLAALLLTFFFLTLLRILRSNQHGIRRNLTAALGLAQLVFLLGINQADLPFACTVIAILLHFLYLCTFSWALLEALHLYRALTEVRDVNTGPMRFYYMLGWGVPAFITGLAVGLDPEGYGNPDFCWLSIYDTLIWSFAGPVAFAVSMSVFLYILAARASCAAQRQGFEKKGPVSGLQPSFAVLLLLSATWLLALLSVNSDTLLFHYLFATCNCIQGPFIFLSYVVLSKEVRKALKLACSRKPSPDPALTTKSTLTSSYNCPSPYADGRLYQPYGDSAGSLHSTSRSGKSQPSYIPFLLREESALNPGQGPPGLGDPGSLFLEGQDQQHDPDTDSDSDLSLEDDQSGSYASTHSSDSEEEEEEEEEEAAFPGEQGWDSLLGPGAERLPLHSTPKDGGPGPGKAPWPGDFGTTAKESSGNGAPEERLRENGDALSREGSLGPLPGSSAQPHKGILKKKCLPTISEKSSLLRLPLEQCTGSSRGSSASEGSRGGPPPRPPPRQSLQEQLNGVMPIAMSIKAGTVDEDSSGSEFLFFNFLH
UniProt Q01974, residues 34-943: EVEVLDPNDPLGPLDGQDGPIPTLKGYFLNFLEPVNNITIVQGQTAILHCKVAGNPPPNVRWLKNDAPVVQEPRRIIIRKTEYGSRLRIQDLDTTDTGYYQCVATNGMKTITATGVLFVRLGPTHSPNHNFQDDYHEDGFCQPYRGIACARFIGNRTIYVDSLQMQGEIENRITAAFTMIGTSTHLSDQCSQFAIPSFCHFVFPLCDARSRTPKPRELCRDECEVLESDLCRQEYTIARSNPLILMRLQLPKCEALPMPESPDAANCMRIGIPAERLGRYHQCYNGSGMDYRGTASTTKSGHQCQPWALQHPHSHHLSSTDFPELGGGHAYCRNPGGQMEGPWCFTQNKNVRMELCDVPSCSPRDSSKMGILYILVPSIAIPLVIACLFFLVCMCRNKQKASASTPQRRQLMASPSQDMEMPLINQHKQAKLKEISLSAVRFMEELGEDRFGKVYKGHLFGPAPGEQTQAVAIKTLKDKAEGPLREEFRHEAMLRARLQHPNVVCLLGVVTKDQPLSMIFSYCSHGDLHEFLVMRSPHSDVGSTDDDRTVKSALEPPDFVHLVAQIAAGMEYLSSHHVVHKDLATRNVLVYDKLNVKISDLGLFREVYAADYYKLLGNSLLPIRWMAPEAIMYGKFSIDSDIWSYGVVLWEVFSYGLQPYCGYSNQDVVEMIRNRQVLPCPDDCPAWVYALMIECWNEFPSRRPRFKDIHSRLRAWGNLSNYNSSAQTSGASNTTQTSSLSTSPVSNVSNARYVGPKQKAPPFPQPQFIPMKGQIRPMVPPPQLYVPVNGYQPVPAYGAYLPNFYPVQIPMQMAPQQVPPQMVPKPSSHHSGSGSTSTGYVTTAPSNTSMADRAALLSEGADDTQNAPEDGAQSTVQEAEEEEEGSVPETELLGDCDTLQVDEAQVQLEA
UniProt P49674: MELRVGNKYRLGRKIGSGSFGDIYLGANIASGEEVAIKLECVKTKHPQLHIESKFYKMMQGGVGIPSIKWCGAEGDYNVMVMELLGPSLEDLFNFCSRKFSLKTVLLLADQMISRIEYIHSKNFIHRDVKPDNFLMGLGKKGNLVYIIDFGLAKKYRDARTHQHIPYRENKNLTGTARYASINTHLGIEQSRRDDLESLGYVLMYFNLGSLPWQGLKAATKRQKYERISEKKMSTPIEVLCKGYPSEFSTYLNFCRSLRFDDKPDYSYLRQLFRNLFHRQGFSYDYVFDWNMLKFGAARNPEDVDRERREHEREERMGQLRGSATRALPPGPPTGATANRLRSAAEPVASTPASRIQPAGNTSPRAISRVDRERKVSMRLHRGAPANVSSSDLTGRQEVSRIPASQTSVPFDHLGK
UniProt Q8N4C8: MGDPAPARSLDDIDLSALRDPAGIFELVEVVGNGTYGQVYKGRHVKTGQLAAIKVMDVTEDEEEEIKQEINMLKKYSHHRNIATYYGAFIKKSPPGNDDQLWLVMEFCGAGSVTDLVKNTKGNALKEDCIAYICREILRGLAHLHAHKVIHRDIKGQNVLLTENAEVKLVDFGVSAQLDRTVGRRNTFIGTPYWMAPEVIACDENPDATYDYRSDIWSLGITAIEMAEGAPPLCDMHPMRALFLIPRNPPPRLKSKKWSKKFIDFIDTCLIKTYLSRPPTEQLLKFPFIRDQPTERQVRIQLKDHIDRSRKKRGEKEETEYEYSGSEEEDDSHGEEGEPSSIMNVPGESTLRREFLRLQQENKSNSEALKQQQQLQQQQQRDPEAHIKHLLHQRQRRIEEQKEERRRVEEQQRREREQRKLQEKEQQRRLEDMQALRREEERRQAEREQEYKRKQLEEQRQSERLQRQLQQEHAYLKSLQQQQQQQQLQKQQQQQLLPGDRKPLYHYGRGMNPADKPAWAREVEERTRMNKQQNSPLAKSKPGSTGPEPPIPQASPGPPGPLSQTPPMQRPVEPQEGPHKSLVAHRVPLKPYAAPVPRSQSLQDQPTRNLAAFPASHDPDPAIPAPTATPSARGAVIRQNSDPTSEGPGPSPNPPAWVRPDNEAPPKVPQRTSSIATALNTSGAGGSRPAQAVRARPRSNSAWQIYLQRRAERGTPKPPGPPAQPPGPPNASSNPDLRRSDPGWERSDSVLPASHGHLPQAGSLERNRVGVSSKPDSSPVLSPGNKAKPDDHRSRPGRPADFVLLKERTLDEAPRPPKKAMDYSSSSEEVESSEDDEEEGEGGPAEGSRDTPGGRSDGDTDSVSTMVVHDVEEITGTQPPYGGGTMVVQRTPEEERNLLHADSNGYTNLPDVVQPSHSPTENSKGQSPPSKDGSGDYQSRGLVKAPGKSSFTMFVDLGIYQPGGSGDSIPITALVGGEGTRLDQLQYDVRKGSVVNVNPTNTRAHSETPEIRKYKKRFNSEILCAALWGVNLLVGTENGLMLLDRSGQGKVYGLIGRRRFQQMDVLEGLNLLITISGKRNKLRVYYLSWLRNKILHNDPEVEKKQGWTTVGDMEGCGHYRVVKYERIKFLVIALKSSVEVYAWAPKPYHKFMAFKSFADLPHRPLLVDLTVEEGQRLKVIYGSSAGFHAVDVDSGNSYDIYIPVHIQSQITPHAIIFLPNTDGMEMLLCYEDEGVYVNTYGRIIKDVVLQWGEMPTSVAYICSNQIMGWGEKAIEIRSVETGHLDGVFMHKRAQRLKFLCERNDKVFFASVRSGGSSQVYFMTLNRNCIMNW
UniProt Q01973, residues 30-937: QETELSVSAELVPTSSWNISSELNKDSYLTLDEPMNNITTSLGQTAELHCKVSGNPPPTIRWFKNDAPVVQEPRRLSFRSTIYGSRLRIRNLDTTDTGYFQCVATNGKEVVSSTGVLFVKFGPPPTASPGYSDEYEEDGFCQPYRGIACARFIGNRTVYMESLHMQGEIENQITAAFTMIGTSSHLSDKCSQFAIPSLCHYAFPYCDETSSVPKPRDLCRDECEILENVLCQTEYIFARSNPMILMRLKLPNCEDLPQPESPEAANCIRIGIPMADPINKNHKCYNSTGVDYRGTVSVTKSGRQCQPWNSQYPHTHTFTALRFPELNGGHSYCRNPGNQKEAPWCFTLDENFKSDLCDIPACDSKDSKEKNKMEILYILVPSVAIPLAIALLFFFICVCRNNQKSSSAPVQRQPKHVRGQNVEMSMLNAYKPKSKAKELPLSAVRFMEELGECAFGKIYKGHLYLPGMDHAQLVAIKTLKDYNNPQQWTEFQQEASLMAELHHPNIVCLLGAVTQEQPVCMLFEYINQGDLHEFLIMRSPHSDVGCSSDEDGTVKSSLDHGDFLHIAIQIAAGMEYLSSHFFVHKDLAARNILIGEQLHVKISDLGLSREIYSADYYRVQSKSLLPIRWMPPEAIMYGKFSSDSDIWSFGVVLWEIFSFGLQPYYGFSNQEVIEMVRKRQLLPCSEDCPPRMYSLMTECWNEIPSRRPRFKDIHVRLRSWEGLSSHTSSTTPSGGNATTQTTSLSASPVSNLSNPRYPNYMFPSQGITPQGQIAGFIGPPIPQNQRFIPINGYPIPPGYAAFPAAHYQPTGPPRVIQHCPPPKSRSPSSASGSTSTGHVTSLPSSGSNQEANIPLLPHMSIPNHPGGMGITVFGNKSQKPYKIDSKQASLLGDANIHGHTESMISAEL

How the values were obtained:
Assay in all cases: proximity labelling; miniTurboID-V5-PRICKLE1-3 baits in stable HEK T-REx 293 TetON cells; doxycycline 1 μg/mL overnight, biotin 50 μM 6 h; streptavidin beads, DIA LC-MS/MS; control miniTurboID-V5 alone; five biological replicates
[1] = biological target: T1, miniTurboID-V5-PRICKLE3 (human) (UniProt O43900)
T1 sequence: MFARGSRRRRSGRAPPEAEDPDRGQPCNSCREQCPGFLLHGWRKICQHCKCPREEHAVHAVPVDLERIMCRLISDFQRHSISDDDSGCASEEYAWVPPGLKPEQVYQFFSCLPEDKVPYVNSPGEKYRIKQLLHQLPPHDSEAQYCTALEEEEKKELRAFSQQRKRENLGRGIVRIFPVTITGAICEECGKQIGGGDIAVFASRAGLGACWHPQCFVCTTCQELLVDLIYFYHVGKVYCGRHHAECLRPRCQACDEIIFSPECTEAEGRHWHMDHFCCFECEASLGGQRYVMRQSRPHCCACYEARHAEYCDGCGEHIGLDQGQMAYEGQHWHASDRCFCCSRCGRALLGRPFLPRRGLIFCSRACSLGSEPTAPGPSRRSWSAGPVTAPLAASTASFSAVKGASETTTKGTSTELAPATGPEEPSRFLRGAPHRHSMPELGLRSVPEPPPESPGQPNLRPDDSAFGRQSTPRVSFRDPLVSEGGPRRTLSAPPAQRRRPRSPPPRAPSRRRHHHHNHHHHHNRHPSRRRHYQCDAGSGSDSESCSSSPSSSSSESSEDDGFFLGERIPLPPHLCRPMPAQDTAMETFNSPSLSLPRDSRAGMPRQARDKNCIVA

[2] = biological target: T2, miniTurboID-V5-PRICKLE1 (human) (UniProt Q96MT3)
T2 sequence: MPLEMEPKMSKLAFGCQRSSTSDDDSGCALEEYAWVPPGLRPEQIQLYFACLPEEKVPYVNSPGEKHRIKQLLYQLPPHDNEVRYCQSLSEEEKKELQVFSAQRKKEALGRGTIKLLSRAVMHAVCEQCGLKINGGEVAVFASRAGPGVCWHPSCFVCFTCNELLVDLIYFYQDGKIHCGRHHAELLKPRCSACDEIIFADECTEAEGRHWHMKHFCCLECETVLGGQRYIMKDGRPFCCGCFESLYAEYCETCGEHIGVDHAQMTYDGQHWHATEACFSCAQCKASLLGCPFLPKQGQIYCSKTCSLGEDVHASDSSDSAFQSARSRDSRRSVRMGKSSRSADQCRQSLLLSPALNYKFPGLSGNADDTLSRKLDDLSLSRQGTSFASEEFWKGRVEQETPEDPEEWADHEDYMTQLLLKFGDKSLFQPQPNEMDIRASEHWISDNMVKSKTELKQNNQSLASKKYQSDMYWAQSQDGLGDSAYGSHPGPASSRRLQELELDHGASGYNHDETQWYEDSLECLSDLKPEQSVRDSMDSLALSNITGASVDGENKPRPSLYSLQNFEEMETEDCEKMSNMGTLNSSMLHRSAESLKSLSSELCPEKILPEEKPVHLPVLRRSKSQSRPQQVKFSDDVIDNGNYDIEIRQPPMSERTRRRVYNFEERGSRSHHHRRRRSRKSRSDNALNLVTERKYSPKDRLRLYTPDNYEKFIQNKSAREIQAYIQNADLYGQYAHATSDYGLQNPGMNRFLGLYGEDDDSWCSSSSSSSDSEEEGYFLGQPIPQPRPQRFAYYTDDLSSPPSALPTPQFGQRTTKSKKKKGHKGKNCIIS

[3] = biological target: T3, miniTurboID-V5-PRICKLE2 (human) (UniProt Q7Z3G6)
T3 sequence: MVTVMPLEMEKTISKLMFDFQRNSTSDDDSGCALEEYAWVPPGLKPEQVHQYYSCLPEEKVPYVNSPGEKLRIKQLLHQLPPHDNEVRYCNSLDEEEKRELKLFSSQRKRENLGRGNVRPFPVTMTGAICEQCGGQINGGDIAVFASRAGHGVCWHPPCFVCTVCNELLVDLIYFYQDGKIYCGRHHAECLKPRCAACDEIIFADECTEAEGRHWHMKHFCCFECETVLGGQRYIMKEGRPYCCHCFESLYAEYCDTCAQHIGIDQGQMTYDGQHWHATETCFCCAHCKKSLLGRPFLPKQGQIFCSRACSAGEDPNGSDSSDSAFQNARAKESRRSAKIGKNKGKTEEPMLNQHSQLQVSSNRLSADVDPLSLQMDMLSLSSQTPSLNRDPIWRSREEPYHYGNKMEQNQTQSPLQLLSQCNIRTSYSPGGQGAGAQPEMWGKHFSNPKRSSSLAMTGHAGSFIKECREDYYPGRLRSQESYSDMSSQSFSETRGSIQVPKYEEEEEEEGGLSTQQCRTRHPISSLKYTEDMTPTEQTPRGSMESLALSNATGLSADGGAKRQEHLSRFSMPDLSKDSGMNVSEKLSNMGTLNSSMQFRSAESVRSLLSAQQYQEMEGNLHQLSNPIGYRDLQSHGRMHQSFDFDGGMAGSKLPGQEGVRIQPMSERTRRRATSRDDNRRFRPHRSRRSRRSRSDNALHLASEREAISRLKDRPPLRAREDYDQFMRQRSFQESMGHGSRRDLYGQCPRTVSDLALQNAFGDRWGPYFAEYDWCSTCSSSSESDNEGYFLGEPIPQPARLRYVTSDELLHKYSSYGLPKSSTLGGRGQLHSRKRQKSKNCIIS

[4] = biological target: T1, miniTurboID-V5-PRICKLE3 (human); remark: listed apart in the source

Molecule: CELSR1 (endogenous) (from UniProt Q9NYQ6 21-3014) (receptor)
binding [1]: binds

Molecule: CELSR2 (endogenous) (from UniProt Q9HCU4 32-2923) (receptor)
binding [1]: binds

Molecule: ROR2 (endogenous) (from UniProt Q01974 34-943) (receptor)
binding [1]: binds

B1: SRCIN1 (endogenous) (protein, UniProt Q9C0H9 1-1183)
chain: MGNAPSQDPERSSPPMLSADDAEYPREYRTLGGGGGGGSGGRRFSNVGLVHTSERRHTVIAAQSLEALSGLQKADADRKRDAFMDHLKSKYPQHALALRGQQDRMREQPNYWSFKTRSSRHTQGAQPGLADQAAKLSYASAESLETMSEAELPLGFSRMNRFRQSLPLSRSASQTKLRSPGVLFLQFGEETRRVHITHEVSSLDTLHALIAHMFPQKLTMGMLKSPNTAILIKDEARNVFYELEDVRDIQDRSIIKIYRKEPLYAAFPGSHLTNGDLRREMVYASRESSPTRRLNNLSPAPHLASGSPPPGLPSGLPSGLQSGSPSRSRLSYAGGRPPSYAGSPVHHAAERLGGAPAAQGVSPSPSAILERRDVKPDEDLASKAGGMVLVKGEGLYADPYGLLHEGRLSLAAAAGDPFAYPGAGGLYKRGSVRSLSTYSAAALQSDLEDSLYKAAGGGGPLYGDGYGFRLPPSSPQKLADVAAPPGGPPPPHSPYSGPPSRGSPVRQSFRKDSGSSSVFAESPGGKTRSAGSASTAGAPPSELFPGPGERSLVGFGPPVPAKDTETRERMEAMEKQIASLTGLVQSALLRGSEPETPSEKIEGSNGAATPSAPCGSGGRSSGATPVSGPPPPSASSTPAGQPTAVSRLQMQLHLRGLQNSASDLRGQLQQLRKLQLQNQESVRALLKRTEAELSMRVSEAARRQEDPLQRQRTLVEEERLRYLNDEELITQQLNDLEKSVEKIQRDVSHNHRLVPGPELEEKALVLKQLGETLTELKAHFPGLQSKMRVVLRVEVEAVKFLKEEPQRLDGLLKRCRGVTDTLAQIRRQVDEGVWPPPNNLLSQSPKKVTAETDFNKSVDFEMPPPSPPLNLHELSGPAEGASLTPKGGNPTKGLDTPGKRSVDKAVSVEAAERDWEEKRAALTQYSAKDINRLLEETQAELLKAIPDLDCASKAHPGPAPTPDHKPPKAPHGQKAAPRTEPSGRRGSDELTVPRYRTEKPSKSPPPPPPRRSFPSSHGLTTTRTGEVVVTSKKDSAFIKKAESEELEVQKPQVKLRRAVSEVARPASTPPIMASAIKDEDDEDRIIAELESGGGSVPPMKVVTPGASRLKAAQGQAGSPDKSKHGKQRAEYMRIQAQQQATKPSKEMSGSNETSSPVSEKPSASRTSIPVLTSFGARNSSISF
binding [4]: binds

B2: DVL1 (endogenous) (protein, UniProt O14640 1-695)
chain: MAETKIIYHMDEEETPYLVKLPVAPERVTLADFKNVLSNRPVHAYKFFFKSMDQDFGVVKEEIFDDNAKLPCFNGRVVSWLVLAEGAHSDAGSQGTDSHTDLPPPLERTGGIGDSRPPSFHPNVASSRDGMDNETGTESMVSHRRERARRRNREEAARTNGHPRGDRRRDVGLPPDSASTALSSELESSSFVDSDEDGSTSRLSSSTEQSTSSRLIRKHKRRRRKQRLRQADRASSFSSITDSTMSLNIVTVTLNMERHHFLGISIVGQSNDRGDGGIYIGSIMKGGAVAADGRIEPGDMLLQVNDVNFENMSNDDAVRVLREIVSQTGPISLTVAKCWDPTPRSYFTVPRADPVRPIDPAAWLSHTAALTGALPRYGTSPCSSAVTRTSSSSLTSSVPGAPQLEEAPLTVKSDMSAVVRVMQLPDSGLEIRDRMWLKITIANAVIGADVVDWLYTHVEGFKERREARKYASSLLKHGFLRHTVNKITFSEQCYYVFGDLCSNLATLNLNSGSSGTSDQDTLAPLPHPAAPWPLGQGYPYQYPGPPPCFPPAYQDPGFSYGSGSTGSQQSEGSKSSGSTRSSRRAPGREKERRAAGAGGSGSESDHTAPSGVGSSWRERPAGQLSRGSSPRSQASATAPGLPPPHPTTKAYTVVGGPPGGPPVRELAAVPPELTGSRQSFQKAMGNPCEFFVDIM
binding [4]: binds

Second part, the molecule after the results:

binding [2]: binds
Molecule: CEP290 (endogenous) (from UniProt O15078 1-2479)

binding [2]: binds
binding [3]: binds
binding [1]: binds
Molecule: Casein kinase 1ε (endogenous) (from UniProt P49674 1-416) (enzyme)

binding [3]: binds
binding [1]: binds
Molecule: Casein kinase CK2 (endogenous) (human (endogenous in HEK T-REx 293)) (enzyme)

binding [3]: binds
binding [1]: binds
Molecule: Misshapen-like kinase 1 (endogenous) (from UniProt Q8N4C8 1-1332) (enzyme)

binding [1]: binds
Molecule: ROR1 (endogenous) (from UniProt Q01973 30-937) (receptor)

binding [4]: binds
B3: EPB41L4A (endogenous) (protein, UniProt Q9HCS5 1-686)
chain: MGCFCAVPEEFYCEVLLLDESKLTLTTQQQGIKKSTKGSVVLDHVFHHVNLVEIDYFGLRYCDRSHQTYWLDPAKTLAEHKELINTGPPYTLYFGIKFYAEDPCKLKEEITRYQFFLQVKQDVLQGRLPCPVNTAAQLGAYAIQSELGDYDPYKHTAGYVSEYRFVPDQKEELEEAIERIHKTLMGQIPSEAELNYLRTAKSLEMYGVDLHPVYGENKSEYFLGLTPVGVVVYKNKKQVGKYFWPRITKVHFKETQFELRVLGKDCNETSFFFEARSKTACKHLWKCSVEHHTFFRMPENESNSLSRKLSKFGSIRYKHRYSGRTALQMSRDLSIQLPRPDQNVTRSRSKTYPKRIAQTQPAESNSISRITANMENGENEGTIKIIAPSPVKSFKKAKNENSPDTQRSKSHAPWEENGPQSGLYNSPSDRTKSPKFPYTRRRNPSCGSDNDSVQPVRRRKAHNSGEDSDLKQRRRSRSRCNTSSGSESENSNREYRKKRNRIRQENDMVDSAPQWEAVLRRQKEKNQADPNNRRSRHRSRSRSPDIQAKEELWKHIQKELVDPSGLSEEQLKEIPYTKIETQGDPIRIRHSHSPRSYRQYRRSQCSDGERSVLSEVNSKTDLVPPLPVTRSSDAQGSGDATVHQRRNGSKDSLMEEKPQTSTNNLAGKHTAKTIKTIQASRLKTET
